Results published in article PMC5296679.
No constants are given. Whether binding was seen depends on the method and setting. For part of these data: Binding calls can cover weak binding; strength is not graded here. Sequences can lack the tags named with a protein. For part of these data: Binding seen in cells or lysates may run through a third protein.

B1: GF14b (BiFC fusion) (protein, UniProt I1I791 1-256)
chain: MSREDNVYMAKLAEQAERYEEMVEYMEKVAKTVDVEELTVEERNLLSVAYKNVIGARRASWRIVSSIEQKEEGRGNEDHVTLIKDYRGKIEAELSKICDGILKLLDSHLVPMSTAAESKVFYLKMKGDYHRYLAEFKASAERKEAAESTMVAYKAAQDIALAELAPTHPIRLGLALNFSVFYYEILNSPDKACNLAKQAFDEAISELDTLGEESYKDSTLIMQLLRDNLTLWTSDLTEEGAEEGKEASKGEAGEGQ
B2: GF14b (two-hybrid fusion) (protein, UniProt I1I791 1-256)
chain: B1 chain

Key:
[1] = biological target: FT2α (BiFC fusion) (B. distachyon); experiment: split reporter; BiFC with split YFP fusions expressed transiently in N. benthamiana leaves; confocal imaging 3 days after infiltration
[2] = biological target: FT2β (BiFC fusion) (B. distachyon); experiment: as above
[3] = biological target: FT2α (BiFC fusion) (B. distachyon); experiment: split reporter; competition BiFC in N. benthamiana leaves: FT2β plasmid co-infiltrated with the BiFC constructs, GUS in place of FT2β as control; fluorescent nuclei and fluorescence intensity
[4] = biological target: FT2α (two-hybrid fusion) (B. distachyon); experiment: two-hybrid; Matchmaker GAL4 system, yeast AH109, pGBKT7 and pGADT7 fusions; growth on SD/-Leu/-Trp/-His/-Ade plus 2.5 mM 3-aminotriazole
[5] = biological target: FT2β (two-hybrid fusion) (B. distachyon); experiment: as above
[6] = biological target: FT2α (two-hybrid fusion) (B. distachyon); experiment: two-hybrid; yeast three-hybrid: bait and prey co-transformed with or without the competitor FT2β into AH109; liquid β-Gal assay with CPRG

Row | Binder | binding [1] | binding [2] | binding [3] | binding [4] | binding [5] | binding [6]
1 | B1 | binds | no binding | binds |  |  | 
2 | B2 |  |  |  | binds | no binding | binds
